Results are given in words; binding and its absence hold for the method and conditions named. For some assays here: Binding seen in cells or lysates may run through a third protein. Some binding calls cover weakened binding; strength is not graded here. Tags and fused reporters may be left off the sequences shown.
T1: cleaved RsiV^6×His (B. subtilis) (UniProt O05403)
T1 sequence: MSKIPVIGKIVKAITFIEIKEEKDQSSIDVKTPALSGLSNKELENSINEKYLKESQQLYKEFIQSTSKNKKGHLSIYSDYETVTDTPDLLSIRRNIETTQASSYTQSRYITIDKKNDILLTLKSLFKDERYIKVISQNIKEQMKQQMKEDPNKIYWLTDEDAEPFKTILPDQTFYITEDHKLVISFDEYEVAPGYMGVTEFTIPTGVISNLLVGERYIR

T2: GST-RsiV^59–285 (B. subtilis, UniProt O05403 59-285)
T2 construct: plasmid pKBW204 (pDEST15); source: E. coli BL21(DE3), purified (Glutathione HiCap Matrix); not shown: GST, N-terminal, kept
T2 sequence (looked up): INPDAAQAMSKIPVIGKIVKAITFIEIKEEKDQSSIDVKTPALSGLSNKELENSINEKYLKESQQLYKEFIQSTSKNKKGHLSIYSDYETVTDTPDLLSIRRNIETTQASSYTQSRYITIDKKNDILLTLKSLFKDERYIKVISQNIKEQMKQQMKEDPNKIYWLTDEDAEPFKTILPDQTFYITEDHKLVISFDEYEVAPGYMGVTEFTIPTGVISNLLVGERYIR

B1: mutanolysin (enzyme, UniProt P25310 78-294)
chain: DTSGVQGIDVSHWQGSINWSSVKSAGMSFAYIKATEGTNYKDDRFSANYTNAYNAGIIRGAYHFARPNASSGTAQADYFASNGGGWSRDNRTLPGVLDIEHNPSGAMCYGLSTTQMRTWINDFHARYKARTTRDVVIYTTASWWNTCTGSWNGMAAKSPFWVAHWGVSAPTVPSGFPTWTFWQYSATGRVGGVSGDVDRNKFNGSAARLLALANNTA

Experiments:
[1] = target: T1, cleaved RsiV^6×His (B. subtilis); test: pull-down; B. subtilis JLH548 producing RsiV-6×His protoplasted with HEW lysozyme (37°C, 45 min); supernatant batch purified on Ni resin; co-eluting band identified by N-terminal sequencing; only the binder purified
[2] = target: T2, GST-RsiV^59–285; test: condition: 2 mg of mutanolysin applied to the column; pull-down; 2 mg purified GST-RsiV^59–285 on a Glutathione HiCap Matrix column in PBS-EW; 2 mg of HEW lysozyme, human lysozyme or mutanolysin applied; washed with PBS-EW, eluted with TNGT; SDS-PAGE; both purified

Molecule | binding [1] | binding [2]
HEW lysozyme (from UniProt P00698 19-147) (enzyme) | binds | –
B1 | – | no binding

Source: paper PMC4183432, “Evidence of a Bacterial Receptor for Lysozyme: Binding of Lysozyme to the Anti-σ Factor RsiV Controls Activation of the ECF σ Factor σ^V” (PLoS Genetics, 2014)
